The values that follow come from article PMC11923385, “Rational Design, Synthesis, and Biological Assessment of Potential Indole‐Capped HDAC6 Inhibitors for Gastric Cancer Suppression” (MedComm, 2025).

This assay concerns MFC cells. Format: in vivo. The following applies: 615 mice, oral 20 mg/kg once daily, 14 days. As for the experimental part:
Six-week-old 615 mice (male) were procured from SJA laboratory animals in Hunan, China, and acclimated to a pathogen-free environment for one week before the commencement of the experiment. Subsequently, 5 × 10^5 of gastric cancer cell MFC were subcutaneously administered into the right flank of the mice. Tumor volume was determined using the formula length × width^2/2. Upon reaching a tumor volume of 50-100 mm³, 24 mice were stratified into four groups and administered oral doses of 0, 10, or 20 mg/kg of compound 10n, as well as 20 mg/kg of SAHA, delivered once daily, separately. Following 14 days, the mice were euthanized, and their tumors and vital organs were dissected for analysis. Paraffin sections measuring 4 µm in thickness were subjected to deparaffinization and subsequently treated with 3% hydrogen peroxide to inhibit endogenous peroxidase activity. Following this, slides were prepared to prevent nonspecific antibody binding and were then exposed to primary antibodies targeting HDAC6, Ac-tubulin, Ki-67, and Tunnel. The mice involved in the study were maintained in specific pathogen-free environments, and the experimental procedures were approved by the Ethics Committee of the Zhengzhou University Health Science Centre. The animal experimentation ethics number is ZZU-URIB-2024-O-109. […]

As for `O=C(CCCCCCC(=O)Nc1ccccc1)NO` [SAHA, reference compound], the “tumor growth inhibition rate (TGI)” value was 30.4%.
